# The other results are listed elsewhere or left out. The main result of the screen is listed elsewhere. These columns were measured beside it and carry no call. Compounds called inactive in the main read-out are mostly missing here. The note in brackets gives the kind of curve behind each potency; many fits are weak.
# Experiment: qHTS Assay for Lipid Storage Modulators in Drosophila S3 Cells;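 on cell number change: cells counted by Cell Tracker Red CMTPX staining in the red channel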
# Conditions: BODIPY lipid droplet fluorescence, 18-24 h; for cell number change: measured here: cell count max response, cells fed with added oleic acid
# Procedure, shortened: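 Drosophila S3 cells got compounds at several concentrations plus oleic acid (400 uM solution). Laser-scanning cytometry with 488 nm excitation read lipid droplets at 500-530 nm and cells at 575-640 nm. Percent activity was relative to 20 uM Triacsin C.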
# [1] = measured here: lipid fluorescence (Fed channel) AC50, cells fed with added oleic acid
# [2] = measured here: cell number channel AC50, cells fed with added oleic acid
Structure (SMILES),cell number change,AC50 [1],AC50 [2]
Cc1ccc(C)c2c1[nH]c1ccccc12,26%,"9.2 µM [rising, partial curve]",
CC(CC(=O)Nc1cc(S(=O)(=O)N2CCOCC2)ccc1OCC(F)(F)F)c1ccccc1 (configuration not stated),54.5%,,
COc1ccc(N(C(=O)c2snc(C(N)=O)c2N)C(C(=O)NC2CCCC2)c2ccco2)c(OC)c1 (configuration not stated),12.1%,"8.2 µM [falling, partial curve]",
CC(C)(C)C1=CC(=Nc2ccccc2N)C=C(C(C)(C)C)C1=O,,,"0.00461 µM [falling, full curve, poor fit]"
O=C(/C=C/c1ccco1)N1CCN(c2ncccn2)CC1,,"18.4 µM [rising, partial curve]",
Cc1ccc(S(=O)(=O)N(C)CC(=O)N2CCN(C(=O)c3ccco3)CC2)cc1,20.2%,"0.231 µM [falling, full curve, poor fit]",
Cc1ccc(C(=O)Nc2c(C)cc(-c3ccc(Cl)cc3)oc2=O)cc1,-2.87%,,
CC1CC(=O)Nc2ccccc2N1S(=O)(=O)c1cccc(F)c1 (configuration not stated),-21%,"4.61 µM [falling, full curve, poor fit]",
Cc1ccc(NC(=O)COC(=O)C2CCC(=O)N2)c([N+](=O)[O-])c1 (configuration not stated),-16.2%,"0.116 µM [falling, full curve, poor fit]",
CC1CCCCC1NC(=O)/C(C#N)=C/c1ccc(OCC(N)=O)cc1 (configuration not stated),-25.3%,"3.66 µM [falling, single point]",
Cc1ccc(N2C(=O)N3[C@H](c4ccc(Cl)cc4)[C@@H]4C(=O)N(C5CCCCC5)C(=O)[C@@H]4[C@]3(Cc3ccccc3)C2=O)cc1,12%,"18.4 µM [rising, partial curve]",
COc1cc(-c2cc(N3C(=O)Nc4ccccc4N3O)n[nH]2)cc(OC)c1OC,8.99%,"1.16 µM [falling, single point]",
COc1ccc(C2=C(C=C(C#N)C#N)C(c3ccccc3C)c3ccccc3O2)cc1OC (configuration not stated),-1.9%,"29.1 µM [rising, single point]",
COc1cccc(OCC(=O)N(C)Cc2nc(-c3cccc(C)c3)no2)c1,16.1%,,
O=c1cc(-c2ccc(O)c(O)c2)oc2ccc3ccccc3c12,-65.2%,,"16.4 µM [falling, partial curve]"
CCOc1ccccc1CNC(=O)c1cc2occc2n1C,,"16.4 µM [rising, partial curve]",
O=C(CSc1nnc(-c2ccccc2)c2ccccc12)NCCN1C(=O)CSC1=O,-3.23%,"1.46 µM [falling, full curve]","0.411 µM [rising, full curve, poor fit]"
O=C(c1cc(Cl)nc2ccccc12)N(Cc1nnc(-c2ccc(Cl)cc2)o1)C1CC1,27.5%,,
COc1cccc(N=Cc2c(O)n(-c3cccc(C)n3)c(=O)c3ccccc23)c1,43.7%,"1.3 µM [rising, partial curve]","1.16 µM [rising, partial curve]"
COc1ccc(CNC(=O)c2nn(-c3ccccc3)cc2OC)cc1,32.1%,"1.16 µM [rising, single point]","0.82 µM [rising, full curve]"

Structure (SMILES),cell number change,AC50 [1],AC50 [2]
O=C(Nc1cccc(-c2cn3cccnc3n2)c1)c1ccco1,84.8%,,
CCCc1ccc(-c2cc(N)n[nH]2)cc1,2.62%,"0.103 µM [rising, full curve, poor fit]",
COc1ccccc1-c1c(C(F)(F)F)oc2cc(OC(=O)c3ccc([N+](=O)[O-])cc3)ccc2c1=O,-28.5%,"18.4 µM [falling, single point]",
CCC(=O)N1CCN(c2ccc(NC(=O)c3ccc([N+](=O)[O-])o3)cc2)CC1,-25.2%,"1.16 µM [falling, full curve]","1.3 µM [falling, full curve]"
CCOC(=O)/C=C1\CN(C(C)c2ccccc2)S(=O)(=O)c2ccccc21 (configuration not stated),12.6%,"0.164 µM [falling, full curve, poor fit]",
Cc1occc1-c1nnc(SCC(=O)N(C)CCC#N)n1N,8.38%,"3.26 µM [rising, single point]",
CCCCCN(C(=O)CCC(=O)OCC(=O)c1c(C)cc(C)cc1C)c1c(N)n(CCCC)c(=O)[nH]c1=O,13.3%,"29.1 µM [rising, single point]",
O=C(NC(Cc1ccccc1)C(=O)NCCc1ccccn1)c1ccccc1 (configuration not stated),-20.5%,,
O=C(CN1CCN(Cc2ccc3c(c2)OCO3)CC1)Nc1ccc(F)cc1,3.22%,"29.1 µM [rising, single point]",
O=C(CNS(=O)(=O)c1ccc(F)cc1)Nc1ccc(C(F)(F)F)cc1,44.4%,"29.1 µM [rising, single point]","8.2 µM [rising, partial curve]"
CC(=O)N1c2ccc(S(=O)(=O)N3CCC(C(=O)NC4CCC(C)CC4)CC3)cc2CC1C (configuration not stated),12%,,
CC(=O)N1N=C(c2ccc(Cl)cc2)OC1(C)C,23.7%,"23.1 µM [falling, single point]",
Cc1ccc(S(=O)(=O)c2c(COC(=O)c3ccccc3Cl)c(-c3ccccc3)nn2C)cc1,-11.2%,,
CCOc1cc(C(=O)OCC(=O)Nc2cc(C)on2)ccc1OCC(C)C,-11.4%,,
CC1CCN(C(NC(=O)c2ccco2)C(=O)c2ccccc2)CC1 (configuration not stated),-3.45%,,"2.31 µM [rising, partial curve]"
Cc1ccc(C)n1-c1ccc(C(=O)NCc2cccnc2)cc1,58.9%,,"18.4 µM [rising, single point]"
COc1ccccc1OCCNC(=O)C1CCN(C(C)=O)CC1,-0.451%,,
CCOc1ccc(NC(=S)NCCCn2ccnc2)cc1,12.7%,"2.06 µM [rising, partial curve, poor fit]",
Cc1ccc(NC(=O)c2ccc(CSc3nnc(-c4ccncc4)n3C)cc2)c(C)c1,22.4%,,
N#Cc1cccc(NC(=O)c2ccc(S(=O)(=O)N3CCOCC3)cc2)c1,20.2%,"3.26 µM [falling, full curve, poor fit]",

# Some of these compounds in order of length of the SMILES, rising.
Structure (SMILES),cell number change,AC50 [1],AC50 [2]
CC(=O)N1N=C(c2ccc(Cl)cc2)OC1(C)C,23.7%,"23.1 µM [falling, single point]",
COc1ccccc1OCCNC(=O)C1CCN(C(C)=O)CC1,-0.451%,,
Cc1ccc(C)n1-c1ccc(C(=O)NCc2cccnc2)cc1,58.9%,,"18.4 µM [rising, single point]"
COc1ccc(CNC(=O)c2nn(-c3ccccc3)cc2OC)cc1,32.1%,"1.16 µM [rising, single point]","0.82 µM [rising, full curve]"
CC1CCN(C(NC(=O)c2ccco2)C(=O)c2ccccc2)CC1 (configuration not stated),-3.45%,,"2.31 µM [rising, partial curve]"
CCOc1cc(C(=O)OCC(=O)Nc2cc(C)on2)ccc1OCC(C)C,-11.4%,,
O=C(CN1CCN(Cc2ccc3c(c2)OCO3)CC1)Nc1ccc(F)cc1,3.22%,"29.1 µM [rising, single point]",
O=C(CSc1nnc(-c2ccccc2)c2ccccc12)NCCN1C(=O)CSC1=O,-3.23%,"1.46 µM [falling, full curve]","0.411 µM [rising, full curve, poor fit]"
COc1cc(-c2cc(N3C(=O)Nc4ccccc4N3O)n[nH]2)cc(OC)c1OC,8.99%,"1.16 µM [falling, single point]",
Cc1ccc(S(=O)(=O)N(C)CC(=O)N2CCN(C(=O)c3ccco3)CC2)cc1,20.2%,"0.231 µM [falling, full curve, poor fit]",
CCC(=O)N1CCN(c2ccc(NC(=O)c3ccc([N+](=O)[O-])o3)cc2)CC1,-25.2%,"1.16 µM [falling, full curve]","1.3 µM [falling, full curve]"
CC(=O)N1c2ccc(S(=O)(=O)N3CCC(C(=O)NC4CCC(C)CC4)CC3)cc2CC1C (configuration not stated),12%,,
COc1ccccc1-c1c(C(F)(F)F)oc2cc(OC(=O)c3ccc([N+](=O)[O-])cc3)ccc2c1=O,-28.5%,"18.4 µM [falling, single point]",
CCCCCN(C(=O)CCC(=O)OCC(=O)c1c(C)cc(C)cc1C)c1c(N)n(CCCC)c(=O)[nH]c1=O,13.3%,"29.1 µM [rising, single point]",

# Continued.

Structure (SMILES),cell number change,AC50 [1],AC50 [2]
CC(=O)c1cccc(NC(=O)c2cc(-c3cccs3)on2)c1,-7.98%,"0.13 µM [falling, full curve, poor fit]",
C=C(Cl)COc1ccc2c(CCC)cc(=O)oc2c1,104%,"0.58 µM [rising, full curve]","1.3 µM [rising, full curve]"
Cc1cccc(C)c1OCCCCN1CCCCC1,0.246%,"0.291 µM [rising, partial curve, poor fit]",
Oc1ccc(C[C@@H]2CNCCN2CCc2cc(C(F)(F)F)cc(C(F)(F)F)c2)cc1,-76%,"29.1 µM [falling, single point]","25.9 µM [falling, single point]"
COC(=O)C1=C(CCc2ccccc2)NC(=O)NC1c1ccc(Br)cc1 (configuration not stated),0.898%,"29.1 µM [falling, single point]",
Cc1nc2ccccc2c(=O)n1/N=C/c1cccs1,0.261%,,"0.103 µM [falling, full curve, poor fit]"
NC(=NC(=O)c1ccccc1)N1N=CCC1c1ccccc1 (configuration not stated),17.3%,,
CCNc1nc(SCC(N)=O)nc2sc3c(c12)CCN(C)C3,45.8%,,"23.1 µM [rising, single point]"
O=S(=O)(c1ccc2c(c1)OCCO2)N1CCC(c2nc3ccccc3[nH]2)CC1,-1.72%,,
O=C(Cn1nc(Cl)nc1Cl)c1ccc([N+](=O)[O-])cc1,-66.2%,"16.4 µM [falling, partial curve]","23.1 µM [falling, single point]"
COc1ccc(N=C2SC(C(N)=O)CC(=O)N2Cc2ccc3c(c2)OCO3)cc1 (configuration not stated),5.84%,"1.84 µM [rising, full curve, poor fit]",
Cc1ccc(-n2c(-c3ccc(Cl)cc3)n[nH]c2=S)c(C)c1,11.9%,"6.51 µM [falling, single point]","0.00461 µM [rising, full curve, poor fit]"
CC(C1CC1)N(Cc1ccccc1)C(=S)Nc1ccccc1 (configuration not stated),18.8%,"0.92 µM [rising, full curve]","0.92 µM [rising, full curve, poor fit]"
COc1ccc(NC(=O)Nc2cc(F)ccc2C)cc1,,"4.11 µM [rising, partial curve]","6.51 µM [rising, single point]"
CC(C)CNC(=O)COC(=O)/C=C/c1ccco1,54.2%,"20.6 µM [rising, single point]","20.6 µM [rising, single point]"
c1ccc(Nc2cccc(Nc3ccccc3)c2)cc1,-34.6%,,"32.6 µM [falling, single point]"
COC(=O)C1=C(CS(=O)(=O)c2ccccc2)NC(=O)NC1c1ccccc1 (configuration not stated),-9.85%,"0.58 µM [rising, single point]",
CCOC(=O)/C(=C/C=C1\Sc2ccccc2N1CC)C(C)=O,-40.3%,"14.6 µM [falling, partial curve]","20.6 µM [falling, single point]"
CCC(C)Sc1ccc([C@@H]2[C@H]3C(=O)N(CC)C(=O)[C@H]3[C@]3(C(=O)OC)CCCCN23)cc1 (some centres not stated),-32.7%,,"18.4 µM [falling, single point]"
CCOc1ccc(S(=O)(=O)N2CCCCC2)cc1NC(=O)CC1OC(=O)c2ccccc21 (configuration not stated),66.8%,"1.16 µM [rising, full curve]","2.59 µM [rising, partial curve]"
